Source: the supplement of paper PMC12764529
± gives the half width of the 95% confidence interval. For many entries, trypsin and chymotrypsin gave values far apart.

How the values were obtained:
[1] = folding stability dG unfold from chymotrypsin proteolysis; higher = more stable
In short: (§1)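 Designed mini-proteins (under 80 residues, no cysteine) in a PA-tagged cDNA display construct were digested with trypsin and chymotrypsin. Each protease was used at 11 concentrations (threefold dilutions) plus a no-protease condition, followed by sequencing. K50 was inferred by Bayesian fitting of sequencing counts, and unfolding free energy was derived against a sequence-predicted unfolded-state K50 and a shared folded-state K50, per protease or combined. Only designs with AlphaFold2 dimer inter-PAE above 15 were kept.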

[2] = folding stability dG unfold from trypsin proteolysis; higher = more stable
Protocol: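 Folding stability of de novo designed mini-proteins (<80 aa, no Cys; designed by TrROS, TrMRF, ProteinMPNN and the joint model) was measured by cDNA display proteolysis with trypsin and chymotrypsin. Each protease was used at 11 concentrations in a threefold dilution series plus a no-protease condition. K50 was inferred by Bayesian fitting of sequencing counts, and dG unfold was derived against a sequence-predicted unfolded-state K50 (Tsuboyama et al. method). Sequences shown include variable-length N-terminal GS-type padding (SAGGSAGG...) inside a display construct carrying a PA tag. Rows were kept only if the AF2 dimer inter-PAE was >15, to exclude likely homo-oligomers.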

[3] = folding stability dG unfold (combined trypsin and chymotrypsin); higher = more stable
In short: as §1

Sequence	folding stability dG unfold [1]	folding stability dG unfold [2]	folding stability dG unfold [3]
SAGMTIEIENEETGETVTIEVNPEDKNKVYITYPNGEKKEMTLDEIAEKLGLSKEEIAKKIKIKKIKVVSAG [r5_156_TrROS_Hall]	3.74 ± 0.12 kcal/mol	1.08 ± 0.096 kcal/mol	3.28 ± 0.16 kcal/mol
SAGGMTLEELKKAKIFAVLKNEKGEEYIVEAEIKEVEEKGEKLVLKVPYKIYNPNGELIAEGEFELELSAGG [r13_172_TrMRF]	4.69 ± 0.079 kcal/mol	2.17 ± 0.096 kcal/mol	4.29 ± 0.22 kcal/mol
SAGGSAGGSAGYGYIVITFKFNYPRLDPDNGKLETFTVEVTIWIPIPPPPPPPPNDPEGKSAGGSAGGSAGG [r17_493_TrROS]	5.25 ± 0.19 kcal/mol	2.22 ± 0.22 kcal/mol	4.8 ± 0.37 kcal/mol
SAGGSAGGSAGMKPDDTVTYTITVPHPESGEPLAEIELTYPVGTPIEKVKEEAKILAEKISAGGSAGGSAGG [r11_516_TrMRF]	0.141 ± 0.27 kcal/mol	0.515 ± 0.03 kcal/mol	0.429 ± 0.088 kcal/mol
SAGGMLLKLPLSSVEIPPDASEEEIEEAKRKLAKPKVVKVTEEVLIEENGIVKKVKVTKYVSLSVEESAGGS [r16_387_JUSTAS]	0.56 ± 0.29 kcal/mol	0.845 ± 0.082 kcal/mol	0.87 ± 0.12 kcal/mol
SAMLRVTVTYERSPTSPDYLVTVRVELPDGTLVAEIPILVPASDPDLTPERVREIARPIVERLAAEGLLSAG [r14_120_TrMRF]	3.833 ± 0.021 kcal/mol	1.01 ± 0.041 kcal/mol	3.46 ± 0.056 kcal/mol
SAGGSAGGSAGKVVLYLPGDGTAWVLKVGDGEAVLEAEPEKVEELLEKIPGTEAVPVPGLSAGGSAGGSAGG [r11_57_TrMRF]	-0.0929 ± 0.23 kcal/mol	0.652 ± 0.026 kcal/mol	0.425 ± 0.12 kcal/mol
SAGGSAPEEKPVVKTVTIKVTNEDGSTYEAEIVFTPDKVFVRITFPDGYVFTFDKDGKLVKVEKLKSAGGSA [r2_68_TrROS_Hall]	5.06 ± 0.19 kcal/mol	2.76 ± 0.19 kcal/mol	4.79 ± 0.32 kcal/mol
SMKVVKLYTDPEGRVVIEITLPKPDGTPVSEEEAKAIADEIAAELKPKYPNATFEITYDPKTGVVTITIGSA [r9_485_JUSTAS]	2.51 ± 0.053 kcal/mol	3.49 ± 0.13 kcal/mol	2.97 ± 0.1 kcal/mol
SPVQVKIEPPNGQRITWWFPPGGTVKEAKEQMRDMLQRALPPNLKIDVDKIDPGKPIEPGEPVRVEVRVKSA [r9_178_TrROS]	0.255 ± 0.82 kcal/mol	2.68 ± 0.15 kcal/mol	0.964 ± 0.39 kcal/mol
SAGAIEKILEALKKAKPGEKVEITIKLPDGSTIKITITYDKETGKYTITVKVIDKKTGKIVKEFKFTLPSAG [r5_35_TrROS_Hall]	5.6 ± 0.11 kcal/mol	3.23 ± 0.14 kcal/mol	5.6 ± 0.24 kcal/mol
SAGGSAGGSAGPPVPVKAEITYTKEGNKYTVTITTSSPDGSTTTTTTEMTPEEIEKIKKNSAGGSAGGSAGG [r17_337_JUSTAS]	1.77 ± 0.06 kcal/mol	-0.418 ± 0.17 kcal/mol	1.41 ± 0.22 kcal/mol
SAGGSAGGSAGGSIPPDVEVEVVETLEVEGDGKTYRYTRISVVRVTSVTPASPERIALASAGGSAGGSAGGS [r10_175_JUSTAS]	4.31 ± 0.084 kcal/mol	1.75 ± 0.069 kcal/mol	3.31 ± 0.2 kcal/mol
SASITIPVDELKDFAEHFPGFNVGVNPETGMFQIFFPENGWMINIDIEVDPDDPDTIEIDIEIYPMPPNSAG [r14_604_TrROS]	2.96 ± 0.15 kcal/mol	1.78 ± 0.13 kcal/mol	2.57 ± 0.37 kcal/mol
SAGMKEELKEAIEKLFKEKGINVSEVKVEKLPNGEYKVTVKLPDGKPLFEVPLPPSAESAEIIIEKIKKSAG [r5_352_JUSTAS]	3.79 ± 0.86 kcal/mol	0.846 ± 0.14 kcal/mol	3.08 ± 0.57 kcal/mol
SAKIKIEKVEATKEGDYLYVTATLTLEDGSKITVTYKIDKNGKILDYKVEIDPVPPPISDEALEKLKKKSAG [r14_171_TrMRF]	3.2 ± 0.083 kcal/mol	1.07 ± 0.11 kcal/mol	2.57 ± 0.56 kcal/mol
SAGGWMTWEFELEDEDGKDIKIEVEQNPGNPWWRVKIEHKGGKPIPEIPIPADSPDDAIDQARDLLKSAGGS [r16_158_TrROS]	-0.0698 ± 0.49 kcal/mol	0.17 ± 0.21 kcal/mol	-0.149 ± 0.33 kcal/mol
SAELTPEQQALIDALRALFDARGWEVEVKFYPNPDKMEVTVRTPDPALEAEIRAALAALPLPVARVTEESAG [r14_284_JUSTAS]	3.423 ± 0.026 kcal/mol	0.941 ± 0.036 kcal/mol	2.97 ± 0.059 kcal/mol
SAGGSAEPVITVTVTPIPEKGEVVITITFPDGTRYTRTLPYSSPEEAEARAAELVAELIAEYRAAASAGGSA [r15_477_JUSTAS]	4.69 ± 0.06 kcal/mol	2.56 ± 0.093 kcal/mol	4.39 ± 0.044 kcal/mol
SAGGLNIVKAEITKIEVTENGIKLTVVADVPNGLKIIAVFEIPAGNPNIPILKEVKLVYVPPELAGKSAGGS [r16_161_TrMRF]	3.64 ± 0.039 kcal/mol	1.38 ± 0.057 kcal/mol	3.2 ± 0.094 kcal/mol

Random excerpt: 3 entries already listed, in no set order.
Sequence	folding stability dG unfold [1]	folding stability dG unfold [2]	folding stability dG unfold [3]
SAELTPEQQALIDALRALFDARGWEVEVKFYPNPDKMEVTVRTPDPALEAEIRAALAALPLPVARVTEESAG [r14_284_JUSTAS]	3.423 ± 0.026 kcal/mol	0.941 ± 0.036 kcal/mol	2.97 ± 0.059 kcal/mol
SMKVVKLYTDPEGRVVIEITLPKPDGTPVSEEEAKAIADEIAAELKPKYPNATFEITYDPKTGVVTITIGSA [r9_485_JUSTAS]	2.51 ± 0.053 kcal/mol	3.49 ± 0.13 kcal/mol	2.97 ± 0.1 kcal/mol
SAGAIEKILEALKKAKPGEKVEITIKLPDGSTIKITITYDKETGKYTITVKVIDKKTGKIVKEFKFTLPSAG [r5_35_TrROS_Hall]	5.6 ± 0.11 kcal/mol	3.23 ± 0.14 kcal/mol	5.6 ± 0.24 kcal/mol

Further results:

Sequence	folding stability dG unfold [1]	folding stability dG unfold [2]	folding stability dG unfold [3]
SAGGSAGGSAGDKTTIRIKVARNWDPNSDLVTVKLPNGKTVTVKVTNLKPDDEVEVEADLSAGGSAGGSAGG [r11_621_JUSTAS]	1.52 ± 0.046 kcal/mol	-0.953 ± 0.62 kcal/mol	1.03 ± 0.095 kcal/mol
SAAAAVAAAVAATLEALLPPGYRITAVTAEVAPDGTVTIPVTVEGPDGVPTLVVVTVDLATGEITVTVFGSA [r9_219_TrMRF]	4.63 ± 0.21 kcal/mol	3.17 ± 0.16 kcal/mol	4.22 ± 0.22 kcal/mol
SAGGSAGGSAGAPELAPLPRVVPRFILVNASPELAPELAERFGADRVIFLPDGSLLIFTTSAGGSAGGSAGG [r11_64_TrMRF]	1.981 ± 0.019 kcal/mol	-0.132 ± 0.031 kcal/mol	1.51 ± 0.026 kcal/mol
SAGGSAGGSMKVKTIELNGKTVELVEVDGKLILRVRDKDTGKEYLLVFDAETGEWKIVSLEDLSAGGSAGGS [r12_632_TrROS_Hall]	4.13 ± 0.072 kcal/mol	1.95 ± 0.068 kcal/mol	3.61 ± 0.13 kcal/mol
SAGIKLPPGQPVPFYVVKIEWEWSLSPNPDGQWMLSLSMRIEIVPFEIKVPPVPTVKVPPGAKDPEDAKSAG [r5_770_TrROS]	4.3 ± 0.14 kcal/mol	2.06 ± 0.1 kcal/mol	4.07 ± 0.3 kcal/mol
SMIIKIKIKEIKLEKNKDGSLTLTIKLENGKEIKLTFPKGWKIKKIEIKEDGYIYIEIEPVKKKSEEEKKSA [r9_501_TrROS_Hall]	3.75 ± 0.1 kcal/mol	1.53 ± 0.079 kcal/mol	3.25 ± 0.16 kcal/mol
SAGGSAGGSAGMKVAVLTIPENGKPVLVVELPDGGALAFDPDTDAVFLLDDDKIYYLGPASAGGSAGGSAGG [r17_476_TrMRF]	1.52 ± 0.059 kcal/mol	0.0117 ± 0.033 kcal/mol	1.13 ± 0.075 kcal/mol
SAGGSAKLTLTIVLKVKPGQKINLTLTLPNGVKAKITSVEVDEETGYIVVEIEIEVEVHPDDPALKSAGGSA [r15_994_TrROS_Hall]	5.3 ± 0.22 kcal/mol	2.29 ± 0.074 kcal/mol	4.79 ± 0.54 kcal/mol
SAGGSAPEIPTDALVRVRDPNSDKWYEATVLEARKLPGGELVYLIRLTKDGNEELVPTDLATVELKSAGGSA [r15_62_JUSTAS]	1.53 ± 0.12 kcal/mol	1.05 ± 0.08 kcal/mol	1.29 ± 0.098 kcal/mol
SAGGSAGGSAQEIYFIANSPEDIRNELEKLFPNFKIDIEPIERDENGYVMFKVTIEIPPGMKSAGGSAGGSA [r18_464_TrROS]	3.72 ± 0.04 kcal/mol	1.19 ± 0.051 kcal/mol	3.16 ± 0.15 kcal/mol
SAGSKTITKTYDFGEYTVKVEATYYPEKEGKVEIKITFYKKNNKPIKEIKIEIKASPDDKEVKEFLEKLSAG [r5_958_TrMRF]	4.49 ± 0.22 kcal/mol	2.25 ± 0.23 kcal/mol	4.26 ± 0.56 kcal/mol
SAGGSAGGSATATLRLRAPVRIRTRVTTLDDGVPTTRTETATVYVDVEIEVLPDLDPDDPRVVSAGGSAGGS [r12_713_TrMRF]	2.594 ± 0.02 kcal/mol	0.0198 ± 0.14 kcal/mol	1.86 ± 0.093 kcal/mol
SAGGSKTVTVTVRIKVTNEDGEELTVTARLTYNEETGEVTVEIEMSPEALERLRELFPDVKIEIYPSAGGSA [r2_409_TrROS_Hall]	3.09 ± 0.13 kcal/mol	4.08 ± 0.22 kcal/mol	3.9 ± 0.32 kcal/mol
SAGGKPPKIKIETKTYYFGNYTLSEFKIEIPDTKVKAEAFLITPPDGKTYLIIKIGDKVIIIPLDKLSAGGS [r16_49_TrMRF]	4.85 ± 0.18 kcal/mol	2.74 ± 0.18 kcal/mol	4.16 ± 0.4 kcal/mol
GYTITSEVEEFEDPNSDAKYTKVTIPVVDGDPEVAREAAEEIAKERFGPGATLDIKYDPETGTVTATFTVAS [r1_273_JUSTAS]	0.379 ± 0.1 kcal/mol	0.511 ± 0.026 kcal/mol	0.563 ± 0.081 kcal/mol
SAGGSAGGSSYTTSTATDPNADVTTTTTTYPDSIVTPVWDPRTGKVVETVTTTPDGTTTTVAASAGGSAGGS [r12_563_JUSTAS]	0.0262 ± 0.17 kcal/mol	0.543 ± 0.068 kcal/mol	0.289 ± 0.14 kcal/mol
SAGGSAMKKGEKVKIKVKVKVYKKNKDGKWEKIKEIEIEMTLEEVKKIAENLPKDYKVEIVDIEIESAGGSA [r15_833_TrROS_Hall]	3.45 ± 0.08 kcal/mol	1.28 ± 0.087 kcal/mol	2.77 ± 0.31 kcal/mol
SAELEELLKKAEELAKKNNVEVEVEVKLELEPVKVTEYKLNKDGKPVEKKEEEELELRLEIKVKIRPKKSAG [r14_728_TrROS_Hall]	3.22 ± 0.2 kcal/mol	1.26 ± 0.2 kcal/mol	2.58 ± 0.35 kcal/mol
SAGGSAGGSAGGMSPGSSSTTVTTTTSPNGTVVTTTTTTTLDPNSNTTSSTTTTTTTTTSAGGSAGGSAGGS [r10_1164_JUSTAS]	1.74 ± 0.18 kcal/mol	3.15 ± 0.25 kcal/mol	2.42 ± 0.25 kcal/mol
SAGGMPEPRPIPLTLTLLVDPEDPESVEEKLREFFEAFGADEITRVERELLPDGRALVTAEVLVNEPVSAGG [r13_222_TrMRF]	1.17 ± 0.043 kcal/mol	1.03 ± 0.03 kcal/mol	1.15 ± 0.061 kcal/mol
